# According to PMC4890663:
# Sequences of proteins named here, by UniProt entry; tags and fusion partners are left off.
# UniProt Q61879: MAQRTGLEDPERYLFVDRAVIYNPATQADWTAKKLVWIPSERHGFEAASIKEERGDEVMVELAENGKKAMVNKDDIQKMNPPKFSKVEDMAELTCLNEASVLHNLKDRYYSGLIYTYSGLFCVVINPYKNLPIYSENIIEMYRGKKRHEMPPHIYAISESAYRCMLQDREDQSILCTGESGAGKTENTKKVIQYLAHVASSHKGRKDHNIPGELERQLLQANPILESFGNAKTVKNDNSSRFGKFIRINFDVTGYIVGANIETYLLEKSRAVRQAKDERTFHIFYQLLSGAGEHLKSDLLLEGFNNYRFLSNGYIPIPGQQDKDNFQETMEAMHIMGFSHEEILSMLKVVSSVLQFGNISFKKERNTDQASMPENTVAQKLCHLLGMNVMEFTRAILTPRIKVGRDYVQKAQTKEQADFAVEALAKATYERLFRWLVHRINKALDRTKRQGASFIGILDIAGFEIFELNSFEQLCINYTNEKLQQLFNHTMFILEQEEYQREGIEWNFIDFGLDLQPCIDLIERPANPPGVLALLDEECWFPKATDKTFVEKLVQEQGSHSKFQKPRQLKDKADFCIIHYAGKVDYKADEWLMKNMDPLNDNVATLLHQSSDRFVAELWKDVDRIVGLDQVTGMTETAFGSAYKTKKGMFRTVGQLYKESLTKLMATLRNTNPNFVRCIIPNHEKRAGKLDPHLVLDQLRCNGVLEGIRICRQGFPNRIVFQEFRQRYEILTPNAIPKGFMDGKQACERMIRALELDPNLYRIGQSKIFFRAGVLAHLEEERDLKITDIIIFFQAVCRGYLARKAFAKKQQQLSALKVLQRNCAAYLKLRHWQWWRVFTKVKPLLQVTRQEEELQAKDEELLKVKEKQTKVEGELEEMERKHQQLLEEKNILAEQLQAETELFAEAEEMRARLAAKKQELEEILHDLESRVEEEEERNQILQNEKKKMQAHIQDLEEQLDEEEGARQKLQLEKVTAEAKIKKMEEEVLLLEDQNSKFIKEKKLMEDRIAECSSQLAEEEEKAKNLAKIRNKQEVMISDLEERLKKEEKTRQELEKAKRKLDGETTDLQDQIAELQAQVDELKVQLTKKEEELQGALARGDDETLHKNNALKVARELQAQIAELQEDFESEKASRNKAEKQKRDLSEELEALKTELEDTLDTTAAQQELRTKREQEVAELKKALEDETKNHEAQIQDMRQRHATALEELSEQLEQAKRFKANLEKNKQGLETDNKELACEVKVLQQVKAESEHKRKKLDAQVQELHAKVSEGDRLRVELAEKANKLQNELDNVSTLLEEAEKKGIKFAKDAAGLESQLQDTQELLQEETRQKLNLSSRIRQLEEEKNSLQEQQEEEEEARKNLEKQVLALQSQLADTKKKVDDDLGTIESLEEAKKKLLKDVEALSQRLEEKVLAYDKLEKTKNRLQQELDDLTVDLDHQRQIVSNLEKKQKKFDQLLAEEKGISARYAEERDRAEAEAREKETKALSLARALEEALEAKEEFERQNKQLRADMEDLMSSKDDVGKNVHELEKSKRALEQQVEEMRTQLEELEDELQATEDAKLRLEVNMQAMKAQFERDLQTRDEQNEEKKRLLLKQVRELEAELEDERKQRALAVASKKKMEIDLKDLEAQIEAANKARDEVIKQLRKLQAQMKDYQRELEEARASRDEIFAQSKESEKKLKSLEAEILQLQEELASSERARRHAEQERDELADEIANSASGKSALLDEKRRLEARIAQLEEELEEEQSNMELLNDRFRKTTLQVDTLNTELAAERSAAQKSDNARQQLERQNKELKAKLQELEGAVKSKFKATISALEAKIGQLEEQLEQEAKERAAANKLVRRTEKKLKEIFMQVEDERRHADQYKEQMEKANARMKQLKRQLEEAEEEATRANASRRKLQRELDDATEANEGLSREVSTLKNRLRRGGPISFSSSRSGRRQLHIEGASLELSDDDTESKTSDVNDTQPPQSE
# Target: T1, Halo-tagged Dlc1 isoform 2 (mouse) (UniProt Q9R0Z9)
# T1 sequence: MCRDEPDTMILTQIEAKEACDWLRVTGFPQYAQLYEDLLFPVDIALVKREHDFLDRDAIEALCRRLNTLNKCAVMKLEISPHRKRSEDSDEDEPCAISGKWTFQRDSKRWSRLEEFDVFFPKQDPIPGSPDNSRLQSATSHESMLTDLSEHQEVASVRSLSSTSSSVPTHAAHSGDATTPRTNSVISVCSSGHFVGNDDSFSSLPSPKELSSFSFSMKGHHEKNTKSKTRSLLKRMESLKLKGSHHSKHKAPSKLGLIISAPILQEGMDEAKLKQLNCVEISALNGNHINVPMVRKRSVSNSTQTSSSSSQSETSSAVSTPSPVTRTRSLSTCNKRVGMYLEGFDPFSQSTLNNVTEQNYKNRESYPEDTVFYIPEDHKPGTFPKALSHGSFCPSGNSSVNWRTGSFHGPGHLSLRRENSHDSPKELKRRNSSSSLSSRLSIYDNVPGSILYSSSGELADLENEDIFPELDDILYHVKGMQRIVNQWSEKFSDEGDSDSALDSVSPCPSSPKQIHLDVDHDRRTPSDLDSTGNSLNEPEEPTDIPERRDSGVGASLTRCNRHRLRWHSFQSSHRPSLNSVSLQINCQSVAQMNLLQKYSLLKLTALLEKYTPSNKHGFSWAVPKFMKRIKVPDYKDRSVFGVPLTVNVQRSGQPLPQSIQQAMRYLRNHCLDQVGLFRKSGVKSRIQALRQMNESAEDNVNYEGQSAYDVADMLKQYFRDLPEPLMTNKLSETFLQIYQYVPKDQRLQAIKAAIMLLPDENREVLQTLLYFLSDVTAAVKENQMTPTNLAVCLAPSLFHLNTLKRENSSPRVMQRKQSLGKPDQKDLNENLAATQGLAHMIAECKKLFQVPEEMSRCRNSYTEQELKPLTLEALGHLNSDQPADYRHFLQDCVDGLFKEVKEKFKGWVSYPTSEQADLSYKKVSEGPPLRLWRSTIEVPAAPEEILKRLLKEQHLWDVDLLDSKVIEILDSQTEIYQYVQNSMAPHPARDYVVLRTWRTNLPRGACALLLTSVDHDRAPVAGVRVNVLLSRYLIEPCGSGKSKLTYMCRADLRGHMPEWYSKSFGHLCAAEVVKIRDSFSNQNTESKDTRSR
# Assay: affinity purification with mass spectrometry; Halo-tagged Dlc1 isoforms (or halo tag only) expressed in OC-033 cells, pulled down on HaloLink resin; products resolved by SDS-PAGE, Coomassie stained, most conspicuous bands cut out, in-gel digestion and tandem MS
row,Substance,binding
1,alpha spectrin 1 (Sptan1 also known as Spna2 and fodrin) (from UniProt P16546 1-2472),binds
2,non-muscle myosin heavy chain IIB (Myh10) (from UniProt Q61879 1-1976),binds

# Results are given in words; binding and its absence hold for the method and conditions named. Binding seen in cells or lysates may run through a third protein. These calls come from enrichment with a bait or labelling near it, and not all partners need be listed. Sequences can lack the tags named with a protein.
